According to patent US20040253206A1 (priority 1999, published 2004):
Some results were stated once for a whole list of compounds, not compound by compound. At least one structure is not confirmed: it was looked up by name or label, or the drawing left a doubt.

System: panel of human tumor cell lines
Experiment: Tumor cell growth inhibition (SRB), whole panel
Assay type: cell-based
Conditions: range over Table I; read-out: IC50 values over all cell lines and experiments

CC(=O)O.CC(=O)OC1C(=O)C2(C)C(O)CC3OCC3(OC(C)=O)C2C(OC(=O)c2ccccc2)C2(O)CC(OC(=O)C(OC(=O)CCC(=O)NCCOCCOCCN)C(NC(=O)c3ccccc3)c3ccccc3)C(C)=C1C2(C)C (stereo not shown) [TX-001, 2′-Succinamidyl-PEG2-amine-paclitaxel Acetate] was tested, and the IC50 was 2.7 to 1800 nM.
